Data from article PMC6553528, “An Interaction Network of the Human SEPT9 Established by Quantitative Mass Spectrometry” (G3: Genes|Genomes|Genetics, 2019).
No constants are given. Whether binding was seen depends on the method and setting. In cells and extracts the contact can be indirect. A yes stands for co-enrichment or nearness to the bait. Other partners may have been found.

T1: TAP-SEPT9_i1 (human) (UniProt Q9UHD8)
T1 sequence: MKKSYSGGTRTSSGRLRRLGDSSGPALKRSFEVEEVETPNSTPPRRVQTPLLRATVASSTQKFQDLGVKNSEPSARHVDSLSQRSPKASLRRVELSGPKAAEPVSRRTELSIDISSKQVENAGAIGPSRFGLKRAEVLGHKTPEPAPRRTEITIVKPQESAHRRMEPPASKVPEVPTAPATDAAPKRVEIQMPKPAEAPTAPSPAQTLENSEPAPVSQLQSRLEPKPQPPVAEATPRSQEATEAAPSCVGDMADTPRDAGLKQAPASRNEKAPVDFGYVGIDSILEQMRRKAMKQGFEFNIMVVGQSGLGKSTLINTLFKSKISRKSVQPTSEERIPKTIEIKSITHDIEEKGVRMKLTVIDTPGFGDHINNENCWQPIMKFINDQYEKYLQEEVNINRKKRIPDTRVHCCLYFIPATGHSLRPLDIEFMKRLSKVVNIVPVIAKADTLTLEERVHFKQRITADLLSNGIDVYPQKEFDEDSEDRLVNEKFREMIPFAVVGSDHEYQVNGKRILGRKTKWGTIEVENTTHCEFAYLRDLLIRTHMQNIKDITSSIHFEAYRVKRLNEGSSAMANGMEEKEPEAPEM


biological target: T1, TAP-SEPT9_i1 (human); assay: affinity purification with mass spectrometry; TAP-SEPT9 captured on human IgG-Sepharose from the cytoplasmic lysate of SILAC-labelled 1306 fibroblasts (overnight, 4 degrees); mixing after purification with the eluate of unlabelled GFP-SEPT9 cells as control; three replicates; hits by LOG2(H/L)>2 and Significance B

| binding | Binder |
| --- | --- |
| binds | Protein LYRIC (protein, UniProt Q86UE4 1-582) MAARSWQDELAQQAEEGSARLREMLSVGLGFLRTELGLDLGLEPKRYPGWVILVGTGALGLLLLFLLGYGWAAACAGARKKRRSPPRKREEAAAVPAAAPDDLALLKNLRSEEQKKKNRKKLSEKPKPNGRTVEVAEGEAVRTPQSVTAKQPPEIDKKNEKSKKNKKKSKSDAKAVQNSSRHDGKEVDEGAWETKISHREKRQQRKRDKVLTDSGSLDSTIPGIENTITVTTEQLTTASFPVGSKKNKGDSHLNVQVSNFKSGKGDSTLQVSSGLNENLTVNGGGWNEKSVKLSSQISAGEEKWNSVSPASAGKRKTEPSAWSQDTGDANTNGKDWGRSWSDRSIFSGIGSTAEPVSQSTTSDYQWDVSRNQPYIDDEWSGLNGLSSADPNSDWNAPAEEWGNWVDEERASLLKSQEPIPDDQKVSDDDKEKGEGALPTGKSKKKKKKKKKQGEDNSTAQDTEELEKEIREDLPVNTSKTRPKQEKAFSLKTISTSDPAEVLVKNSQPIKTLPPATSTEPSVILSKSDSDKSSSQVPPILQETDKSKSNTKQNSVPPSQTKSETSWESPKQIKKKKKARRET |
| binds | Aspartate aminotransferase, mitochondrial (protein, UniProt P00505 30-430) SSWWTHVEMGPPDPILGVTEAFKRDTNSKKMNLGVGAYRDDNGKPYVLPSVRKAEAQIAAKNLDKEYLPIGGLAEFCKASAELALGENSEVLKSGRFVTVQTISGTGALRIGASFLQRFFKFSRDVFLPKPTWGNHTPIFRDAGMQLQGYRYYDPKTCGFDFTGAVEDISKIPEQSVLLLHACAHNPTGVDPRPEQWKEIATVVKKRNLFAFFDMAYQGFASGDGDKDAWAVRHFIEQGINVCLCQSYAKNMGLYGERVGAFTMVCKDADEAKRVESQLKILIRPMYSNPPLNGARIAAAILNTPDLRKQWLQEVKVMADRIIGMRTQLVSNLKKEGSTHNWQHITDQIGMFCFTGLKPEQVERLIKEFSIYMTKDGRISVAGVTSSNVGYLAHAIHQVTK |
| binds | Septin-11 (protein, UniProt Q9NVA2 1-429) MAVAVGRPSNEELRNLSLSGHVGFDSLPDQLVNKSTSQGFCFNILCVGETGIGKSTLMDTLFNTKFESDPATHNEPGVRLKARSYELQESNVRLKLTIVDTVGFGDQINKDDSYKPIVEYIDAQFEAYLQEELKIKRSLFNYHDTRIHACLYFIAPTGHSLKSLDLVTMKKLDSKVNIIPIIAKADTIAKNELHKFKSKIMSELVSNGVQIYQFPTDEETVAEINATMSVHLPFAVVGSTEEVKIGNKMAKARQYPWGVVQVENENHCDFVKLREMLIRVNMEDLREQTHTRHYELYRRCKLEEMGFKDTDPDSKPFSLQETYEAKRNEFLGELQKKEEEMRQMFVMRVKEKEAELKEAEKELHEKFDLLKRTHQEEKKKVEDKKKELEEEVNNFQKKKAAAQLLQSQAQQSGAQQTKKDKDKKNASFT |
